These are yes or no findings as the source states them, for the method shown. Some binding calls cover weakened binding; strength is not graded here.

Sequences of proteins named here, by UniProt entry; tags and fusion partners are left off. Residues count along the entry.
UniProt P06213, residues 763-1382: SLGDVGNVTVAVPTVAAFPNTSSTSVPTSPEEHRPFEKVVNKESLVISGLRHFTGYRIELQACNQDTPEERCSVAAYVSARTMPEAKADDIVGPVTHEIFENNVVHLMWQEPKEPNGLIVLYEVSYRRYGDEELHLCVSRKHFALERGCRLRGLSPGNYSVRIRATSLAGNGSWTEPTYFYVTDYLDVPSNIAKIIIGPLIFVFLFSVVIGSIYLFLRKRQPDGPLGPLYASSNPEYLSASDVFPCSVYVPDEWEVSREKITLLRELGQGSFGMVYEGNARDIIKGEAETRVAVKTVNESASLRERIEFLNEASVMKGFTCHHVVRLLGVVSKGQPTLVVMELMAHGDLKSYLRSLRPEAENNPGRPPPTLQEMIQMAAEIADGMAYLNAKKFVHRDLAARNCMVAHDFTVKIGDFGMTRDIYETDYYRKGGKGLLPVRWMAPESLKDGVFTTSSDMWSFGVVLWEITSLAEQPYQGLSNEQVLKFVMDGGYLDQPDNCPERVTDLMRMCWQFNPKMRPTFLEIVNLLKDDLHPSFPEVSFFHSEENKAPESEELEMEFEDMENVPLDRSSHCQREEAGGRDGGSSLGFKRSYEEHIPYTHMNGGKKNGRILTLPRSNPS
UniProt O14543: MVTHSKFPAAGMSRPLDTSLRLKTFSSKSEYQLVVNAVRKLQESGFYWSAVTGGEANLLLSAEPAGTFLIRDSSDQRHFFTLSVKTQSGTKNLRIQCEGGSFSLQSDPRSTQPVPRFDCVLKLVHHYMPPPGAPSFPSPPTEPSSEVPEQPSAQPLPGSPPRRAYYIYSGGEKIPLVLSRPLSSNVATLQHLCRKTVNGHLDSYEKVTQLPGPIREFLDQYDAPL

The target in assay [1] is insulin receptor (IR), detected as IR beta chain (IRβ) (human) (UniProt P06213). The assay is described as follows: ex vivo Western blotting of human hippocampal formation tissue, ratio of SOCS3 to IRβ (figure legend). (A western blot detects proteins with antibodies after separation by electrophoresis.)
Assay [2] shares this target. The assay is described as follows: ex vivo Western blotting of human hippocampal formation tissue, ratio of SOCS3 to IRβ.

Consider “SOCS3 (suppressor of cytokine signaling 3) (from UniProt O14543 1-225)”, for which the binding result in assay [1] and in assay [2] was “binds” throughout.

The record behind these values is US20170112897A1, “METHODS FOR TREATING BRAIN INSULIN RESISTANCE” (priority 2015, published 2017).
